Reference: paper PMC5424302

Biological target: ASC (apoptosis-associated speck-like protein containing a CARD) (rat (endogenous in hippocampus))
Assay: co-IP; rat hippocampus lysates (500 ug) precipitated with 1 ug anti-ASC antibody overnight at 4 C, protein A agarose beads, washed five times with RIPA buffer, western blot; normal rats and rats exposed to CUS for 1, 2 or 3 weeks; IgG as negative control

binding: binds
B1: active p10 caspase-1 (cleaved caspase-1) (domain or fragment, UniProt P43527 315-402)
chain: GIKKAHIEKDFIAFCSSTPDNVSWRHPVRGSLFIESLIKHMKEYAWSCDLEDIFRKVRFSFEQPDSRLQMPTTERVTLTKRFYLFPGH

binding: binds
B2: caspase-1 (caspase-1 p45, pro-caspase-1) (enzyme, UniProt P43527 1-402)
chain: MADKVLRAKRKQFINSVSVGTINGLLDELLEKRVLNQEEMDTIKLANITVMEKARDLCDHVTKKGPRASQMFITYICNEDCYLAEILELQSGPSAETVFVTEDSKGGHPFSSETKEKLNKEGGAFPGPSGSLKFCPLEIAQKLWKENHSEIYPIMKTPTRTRLALIICNTDFQHLSRRVGADVDLREMKLLLQDLGYTVKVKENLTALEMTKELKEFAACPEHKTSDSTFLVFMSHGLQEGICGITYSNEVADILKVDTIFQMMNTLKCPSLKDKPKVIIIQACRGEKQGVVLLKDSVGNSEEGFLTDAIFEDDGIKKAHIEKDFIAFCSSTPDNVSWRHPVRGSLFIESLIKHMKEYAWSCDLEDIFRKVRFSFEQPDSRLQMPTTERVTLTKRFYLFPGH

No constants are given. Whether binding was seen depends on the method and setting. In cells and extracts the contact can be indirect. Binding can be weak; no strength is given. Each block holds one binder with its values, some of them ahead of it.
